Reference: paper PMC3675011

Protein sequences, listed by entry. Tags and fused reporters are not part of them. Lines headed by an entry give the natural chain unless they say otherwise; changes in a name come on top.
UniProt Q10013: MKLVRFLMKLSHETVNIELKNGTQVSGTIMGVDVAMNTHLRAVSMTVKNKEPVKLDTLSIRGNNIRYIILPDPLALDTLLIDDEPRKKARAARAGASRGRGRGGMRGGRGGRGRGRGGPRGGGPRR
UniProt P0CG71: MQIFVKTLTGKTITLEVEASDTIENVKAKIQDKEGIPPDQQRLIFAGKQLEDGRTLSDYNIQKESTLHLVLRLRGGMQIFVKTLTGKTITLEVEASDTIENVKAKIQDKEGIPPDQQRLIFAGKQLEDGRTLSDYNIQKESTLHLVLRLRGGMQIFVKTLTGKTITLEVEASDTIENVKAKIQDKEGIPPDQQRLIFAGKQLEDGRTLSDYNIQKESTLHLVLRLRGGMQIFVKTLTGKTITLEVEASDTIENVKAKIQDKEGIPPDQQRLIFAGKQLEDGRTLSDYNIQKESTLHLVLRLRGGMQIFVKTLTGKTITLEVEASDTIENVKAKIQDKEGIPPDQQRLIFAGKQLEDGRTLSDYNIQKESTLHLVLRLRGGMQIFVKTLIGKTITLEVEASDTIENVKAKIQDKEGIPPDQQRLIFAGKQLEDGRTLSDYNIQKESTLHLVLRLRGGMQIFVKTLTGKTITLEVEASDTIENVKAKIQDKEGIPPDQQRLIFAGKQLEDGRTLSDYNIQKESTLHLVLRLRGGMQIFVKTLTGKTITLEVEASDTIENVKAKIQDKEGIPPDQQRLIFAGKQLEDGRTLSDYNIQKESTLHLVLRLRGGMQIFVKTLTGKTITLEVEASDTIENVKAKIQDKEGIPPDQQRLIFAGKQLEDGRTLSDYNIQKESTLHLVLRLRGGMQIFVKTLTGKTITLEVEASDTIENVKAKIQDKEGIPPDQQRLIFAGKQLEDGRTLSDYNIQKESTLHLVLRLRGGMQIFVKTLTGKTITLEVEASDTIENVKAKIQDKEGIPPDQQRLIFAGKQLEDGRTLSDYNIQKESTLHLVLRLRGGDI
UniProt P09446: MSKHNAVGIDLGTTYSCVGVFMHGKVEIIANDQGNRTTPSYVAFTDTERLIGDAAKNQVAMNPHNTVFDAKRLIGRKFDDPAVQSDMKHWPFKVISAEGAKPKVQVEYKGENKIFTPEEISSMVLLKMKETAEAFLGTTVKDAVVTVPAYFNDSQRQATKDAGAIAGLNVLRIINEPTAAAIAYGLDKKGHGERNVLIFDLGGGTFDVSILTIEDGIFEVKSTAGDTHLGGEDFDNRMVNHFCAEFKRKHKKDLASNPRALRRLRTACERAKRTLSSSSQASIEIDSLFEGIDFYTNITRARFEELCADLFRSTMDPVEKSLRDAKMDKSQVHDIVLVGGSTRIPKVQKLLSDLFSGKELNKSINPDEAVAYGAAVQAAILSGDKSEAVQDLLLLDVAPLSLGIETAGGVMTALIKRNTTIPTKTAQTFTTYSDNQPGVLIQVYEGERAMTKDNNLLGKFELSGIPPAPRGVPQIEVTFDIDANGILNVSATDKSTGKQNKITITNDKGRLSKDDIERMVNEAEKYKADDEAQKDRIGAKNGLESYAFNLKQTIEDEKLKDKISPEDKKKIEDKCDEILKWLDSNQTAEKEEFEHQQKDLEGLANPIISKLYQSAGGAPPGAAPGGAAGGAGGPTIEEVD
UniProt P91918: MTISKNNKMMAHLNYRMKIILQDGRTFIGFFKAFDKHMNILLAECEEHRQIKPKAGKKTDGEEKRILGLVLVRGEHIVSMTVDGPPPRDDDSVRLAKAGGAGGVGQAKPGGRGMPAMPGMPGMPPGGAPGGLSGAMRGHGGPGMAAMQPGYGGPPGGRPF
UniProt P18334: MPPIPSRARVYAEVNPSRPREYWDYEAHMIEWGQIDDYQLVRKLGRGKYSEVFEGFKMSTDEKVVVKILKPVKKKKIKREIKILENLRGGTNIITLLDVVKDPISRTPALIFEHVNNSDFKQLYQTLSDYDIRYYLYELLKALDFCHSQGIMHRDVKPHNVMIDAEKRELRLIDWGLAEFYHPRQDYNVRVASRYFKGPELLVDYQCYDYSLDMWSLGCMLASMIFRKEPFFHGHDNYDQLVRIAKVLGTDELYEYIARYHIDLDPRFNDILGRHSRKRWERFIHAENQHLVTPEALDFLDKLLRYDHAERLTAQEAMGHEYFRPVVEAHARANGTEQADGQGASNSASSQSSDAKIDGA

T1: RSR-2, the Caenorhabditis elegans ortholog of human SRm300/SRRM2 (C. elegans (endogenous in N2 worms)) (UniProt Q9U213)
T1 sequence: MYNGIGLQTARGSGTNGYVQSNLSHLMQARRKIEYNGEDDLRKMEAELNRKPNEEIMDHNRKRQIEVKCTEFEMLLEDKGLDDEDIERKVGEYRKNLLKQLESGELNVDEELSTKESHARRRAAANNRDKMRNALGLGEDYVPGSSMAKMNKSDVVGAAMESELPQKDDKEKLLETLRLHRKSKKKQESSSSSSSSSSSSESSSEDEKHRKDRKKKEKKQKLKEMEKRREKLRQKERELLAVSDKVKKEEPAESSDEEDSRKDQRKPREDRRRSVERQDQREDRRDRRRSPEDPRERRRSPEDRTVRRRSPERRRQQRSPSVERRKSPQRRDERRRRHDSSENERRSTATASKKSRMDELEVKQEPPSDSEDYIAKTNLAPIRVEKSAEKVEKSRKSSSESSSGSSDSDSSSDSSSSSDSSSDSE

B1: rRNA 2′-O-methyltransferase fibrillarin (fib-1) (protein, UniProt Q22053 1-352)
chain: MGRPEFNRGGGGGGFRGGRGGDRGGSRGGFGGGGRGGYGGGDRGSFGGGDRGGFRGGRGGGDRGGFRGGRGGGDRGGFGGRGSPRGGFGGRGSPRGGRGSPRGGRGGAGGMRGGKTVVVEPHRLGGVFIVKGKEDALATKNMVVGESVYGEKRVSVDDGAGSIEYRVWNPFRSKLAASIMGGLENTHIKPGTKLLYLGAASGTTVSHCSDVVGPEGIVYAVEFSHRSGRDLLGVAKKRPNVVPIVEDARHPHKYRMLVGMVDVIFSDVAQPDQARIVALNAQNFLRNGGHAVISIKANCIDSTAEPEAVFAGEVNKLKEEKFKPLEQVTLEPYERDHAVVVAVYRPVKGKKV
B2: Nucleolar complex protein 2 homolog (pro-2) (protein, UniProt O17580 1-715)
chain: MKLLKKPAGLKKRKVISKRIKIEKKPSSEDEGSSDEEVPKLDGEGSLDGSEDEDDGTVTVEKGGVKKHKLDLEKLKQSDPEFFKFLQQEDADLLNMEDDGDDDEDDDEDDEDEEEEESDDDEDDEEDDDKTKIKKIRKPKIKSDNSGRLIVDSNVYSYLQQVLVLDDETSTPTNPSDVRMAVDVFVACVARVGADIEAPKYVINEQSIFEAVVRMCFQAMPDILKRLLKAKPEGDKVLFSKTAIKKYQTYVRTYLHAMIVFLNEVQTTEVLIATIKAMTRLVDLYAHFSRMSKLLIKAVVRIWSRKTLECRLPAFVCMNLLVKNYPQHFVPLYKTAYVAFVANSKIVTNETWPLLQFMHRTFAELTILNPEQAYKYAFVYIRQTAVHLRNAMISKGRKDLIFSIYNWQMMQCMYMWVRVIAKAHSVNGAEQIGELVYPLIQVIVGIFKLCNAPTFLPLRLHCCQLLIQLQASCTNYIPILQVSCDCLEELARELKSKPKPVKGAVKLPDIECTLKCSSQFSDLPQWRKVISEHVFRTMMQSAHLLASQAAFPDVVLPINHRISAILETMKNGDHAHLFRGFQTKLKEHSRFVLDVLARKSVDINDEMQVRAVRFDLNNPDSPIKTFYRQWEKVWKMKERSAVENSKKDDKKKKKEEEAAAAKKRKPNETVEDEDDVKPEVSKAKRKRIKIGAAAKKADASVPDQFADMSMWSDED
B3: Transcriptional cofactor T27F2.1 (skp-1) (protein, UniProt Q22836 1-535)
chain: MSMKLRDILPAPVAADEAASQIRRDPWFGGRDNEPSAALVSKEPPPYGKRTSFRPRGPEDFGDGGAFPEIHVAQFPLGLGLGDMRGKPENTLALQYGTDGKLQHDAIARIGHVKDKVVYSKLNDMKAKTWNEDDDDIQKPDDDAVIDATEKTRMALEKIVNSKVASALPVRHADKLAPAQYIRYTPSQQNGAAGSQQRIIRMVEEQKDPMEPPKFKINQKIPRAPPSPPAPVMHSPPRKMTAKDQNDWKIPPCISNWKNPKGFTVGLDKRLAADGRGLQQTHINENFAKLADALYIADRKAREEVETRAQLERRVAQNKKSEQEAKMAEAAAKARQERSAMRRKDDEDDEQVKVREEIRRDRLDDIRKERNIARSRPDKADKLRKERERDISEKIVLGLPDTNQKRTGEPQFDQRLFDKTQGLDSGAMDDDTYNPYDAAWRGGDSVQQHVYRPSKNLDNDVYGGDLDKIIEQKNRFVADKGFSGAEGSSRGSGPVQFEKDQDVFGLSSLFEHTKEKKRGGDGGDSRGESKRSRRD
B4: E3 ubiquitin-protein ligase siah-1 (siah-1) (protein, UniProt Q965X6 1-419)
chain: MSNRNGGGGGGDYQDVIESLRRTQLIFEEDDNNSSDSAPQANHLSRHQTSNSLVEDMVNHSNGNPPPVPPGITQQQCQIGLTPRMSASPPSAVSTISGTAVLGKTMARVQSNPPGSIPHNTTTTAQGIQSVAPHIPIGGGGATDDSSAEILSVFECPVCLEYMLPPYMQCSSGHLVCSNCRPKLQCCPTCRGPTPSVRNLGLEKIANTVRFPCKFSTSGCPLNFHHADKTEHEELCEFRPYCCPCPGASCKWQGGLSDVMEHLKKIHKSITTLQGEDIVFLATDINLPGAVDWVMMQSCFDYNFMLVLEKQEKYDPAQPTQMFYAVVQLIGSKKEADNFVYRLELSASRRRMSWEATPRSIHEGVVVAIQQSDCLAFDSNAAQLFAENGNLGINVTISRIDTPQRRHPNELENSDLEYD
B5: Lysine-specific demethylase rbr-2 (rbr-2) (protein, UniProt Q23541 1-1477)
chain: MRARRQENSISTPSAPSTSTSPRKKASIGNSRSKNHGSKMEMYDQFYKKFVRPPMAPIYYPTEEEFSDPIEYVAKIRHEAEKFGVVKIVPPANFKPPFAIDKEAFTFRPRTQKLNEVEAIVKEKHTFIDRLINFNRYSGLTFEFPVDRDGNIVDLYRLHRIVQNFGGCEEVNEDEKWRDVAREYLPKEQMARGVPSAFINLIRSHYNLHIEPFNRNLKEKAMKNDDESDDEMEELKHKYQHHHGTMRTEIEVPNDKTTEGGEDECPVSMQSGRRRSKNKKASSSRKTLGTSSKKNSTRGRKNKKKAEGDDDDDEDPMDQVFCVACNEGKDEDLLLLCDIDGCNNGRHTYCCDPVLDEVPEGEWRCPKCIESEDAKIGLDWGFYDADTEYNLNSFTEFANKWKCDYFGVKDVSQVSCDAVERSFWKNVISHENPVSVKYGADLITSRVGSGFPRKEDKHTGPDLKLKQQYASHAWNLNNMPVLRESVLSHFNTGISGMMVPWVYVGMCFSTFCWHTEDHWTYSVNYNHFGERKIWYGVGGEDAEKFEDALKKIAPGLTGRQRDLFHHMTTAANPHLLRSLGVPIHSVHQNAGEFVITFPRAYHAGFNEGLNFAEAVNFAPIDWLSKGRECVESYSNVRRYLVFSHDELLFKMVEAMDKLGISMSLATHEELIRIYEKQKMLRELLARLGVSNRQMQQVMFEKIPDEQRSCRFCKTTLFMCALVCNKHKKMTCVEHHDHLCNSCTTKDYRYQYRFELDQLNNMCDELGKRTVNYNGWKEESDEMLEEEGKPKLERIEEFIDSAKQNKYPQTDQVHKLITIRHTAKSAIEKANQLLFKKVRTRTKTRCQRADTRTDTEGVRSLIEQMQAMDCNLTVIIDKLEKWMEQVEMWRNRAKDAIYREQEYSKEEIEKIIEEGDEYDIKLEEIDELRKVIQMKDWSDRARKVTTWKATPDMEKDIDFEYKLRYASSDILSLIRDSPRNPTDGTSKLVFELQQMLRDANTLEVIANNFCENPALDQLQSIWQSLRETDWFYEKYINMVRYEIIHVAKIKSMIDAAIPVLSEFDLKTQLQKIVNVEITLSKAAEISKAFETSKCLNGSEEHLGILDMISTMNAFTQRIAILFKPNNAYHNLFEILSERDDLTPLAEGQTIPLYFQGGAVHPSDEWHQMKEFESLDQIVHHQSSLREMQMRIFEKVKQANSARGLEACSCLGFNKSDDSESTLTCIMCDSEFHVRCCEWSPFLEKLPEGCFLCVRCLRGQRPVIDDVTTALNGTPSGCLETHLVRNLIQKTRGITQNLMEAANKRKSGESSDDICKIALFDWLSCEILNPNGLPKARELISEFYMEYLQKQSSAALELKNRPVRSKPSVSLFDPKITAKRKRPSVSHKETSKKSRKRQSQASPSEYYEDESEFKSCQARACLKPYGDSVNWVMCEAGCKNWFHVICLGFTLREINDMHEYRCSSCLDHADSPTSSVSTD
B6: Small nuclear ribonucleoprotein Sm D3 (snr-1) (protein, UniProt Q17348 1-136)
chain: MTSVGVPIKILHEAEGHMVTLETVTGEVYRGKLSEAEDNMNCQLAETVVTFRDGRSHQLDNVFIRGNKIRFMILPDMLKNAPMFKNIGRAQKGAIGMGLGGLDQRGRGRGTAFRRPMGRGGPRGMSRPGGAPTFRG
B7: Probable U2 small nuclear ribonucleoprotein A′ (mog-2) (protein, UniProt Q9BLB6 1-253)
chain: MVRLTTELFAERPQFVNSVNMREINLRGQKIPVIENMGVTRDQFDVIDLTDNDIRKLDNFPTFSRLNTLYLHNNRINYIAPDIATKLPNLKTLALTNNNICELGDIEPLAECKKLEYVTFIGNPITHKDNYRMYMIYKLPTVRVIDFNRVRLTEREAAKKMFKGKSGKKARDAIQKSVHTEDPSEIEPNENSSGGGARLTDEDREKIKEAIKNAKSLSEVNYLQSILASGKVPEKGWNRQMDQNGADGEAMES
B8: Probable small nuclear ribonucleoprotein E (snr-6) (protein, UniProt Q9XTU6 1-90)
chain: MSTRKLNKVMVQPVNLIFRYLQNRTRVQIWLYEDVTHRLEGYIIGFDEFMNVVFDEAEEVNMKTKGRNKIGRILLKGDNITLIHAAQQEA
B9: Pre-mRNA-splicing factor CWC22 homolog (let-858) (protein, UniProt Q17336 1-897)
chain: MSSSRSQSPETPKAASEEREEEEKESSEQPDTPKTSSEKSASRSQSPRESREVSQETETSENQEKIKEKDDGDDQPGTPNSYRSRETSPAPKRSKETRESESPEKSPVRSRSPRRSSARSPSRSPRRRRERSSERKQSEEPAPLPEKKKKEPLDILRTRTGGAYIPPAKLRLMQQQISDKQSEQYQRMNWERMKKKIHGLVNRVNAKNLVQIVRELLQENVIRSKGLLCRDIIQAQAFSPGFSNVYAALAAVINSKFPHVGELLLRRLIVQFKRSFRRNDRGVTVNVIKFIAHLINQQVAHEVLALEIMILMLEEPTDDSVEVAIAFLKECGAKLLEIAPAALNSVYDRLRAILMETERSENALDRRIQYMIETAMQIRKDKFAAYPAVIEDLDLIEEEDQIIHTLNLEDAVDPENGLNVFKLDPEFEKNEEVYEEIRKEIIGNADISDEDGGDELDDEEEGSDVEEAPKKTTEIIDNTDQNLTAFRREVYLTMQSSLDYQEAAHKLLKMKIPDSMQNELCAMLVDCCAQQRTYERFYGMLIERFCRLRLEYQQYFEKLCQDTYSTIHRIDITKLRNLARLIAHLLSTDAIDWKILADMKMTEEDTTSSGRIYIKYIFNELVEAMGMVKLHSRVTDPTLAHCFVGLFPRTNPNSARFSINFFTMIGLGGLTLELREWLAKGLKKKKGMLDQLKAESSSDSSSSSDSSDSSDSSDSDDSSDSSSDSSSSSESEPEPPKKKKKKNSEESSKKKEKENIGRRDRGDKRAERHRDQSVENKDKDRRRRQDSDENRRPERGDDRKDRSKDRRRQDSDDEDRKGRERREDSGERRRGDRDRRDRNKDQEDHREDRRDRSKDREDRRDRRRHDSDDDRKTRRDRSEERGGRRREVESDDRRRRR

Experiments:
[1] = biological target: T1, RSR-2, the Caenorhabditis elegans ortholog of human SRm300/SRRM2 (C. elegans (endogenous in N2 worms)); test: affinity purification with mass spectrometry; RSR-2-containing complexes immunopurified with anti-RSR-2 antibody from two biological replicates of wild type mixed-stage worms; eluate precipitated with acetone, digested with trypsin (MudPIT), LC-MS/MS; control unspecific rabbit IgG
[2] = biological target: T1, RSR-2, the Caenorhabditis elegans ortholog of human SRm300/SRRM2 (C. elegans (endogenous in N2 worms)); test: as above; remark: listed apart in the source

Molecule | binding [1] | binding [2]
Probable small nuclear ribonucleoprotein Sm D1 (snr-3) (from UniProt Q10013 1-126) | binds | 
Polyubiquitin-A (ubq-1) (from UniProt P0CG71) | binds | 
Heat shock 70 kDa protein A (hsp-1) (from UniProt P09446 1-640) | binds | 
Probable small nuclear ribonucleoprotein-associated protein B (snr-2) (from UniProt P91918 1-160) | binds | 
Casein kinase II subunit alpha (kin-3) (from UniProt P18334 1-360) | binds | 
B1 |  | binds
B2 |  | binds
B3 |  | binds
B4 |  | binds
B5 |  | binds
B6 |  | binds
B7 |  | binds
B8 |  | binds
B9 |  | binds

Like-named read-outs stand apart in the source and are kept apart here. Results are given in words; binding and its absence hold for the method and conditions named. Binding seen in cells or lysates may run through a third protein. These calls come from enrichment with a bait or labelling near it, and not all partners need be listed.
